From PubChem BioAssay AID485298 (National Center for Advancing Translational Sciences (NCATS), 2010)
In all, about 320,000 compounds went through this assay and about 740 (0.23%) were called active. The shares of active, inactive and inconclusive entries below differ from those in the screen. The call rests on the fitted dose curve; in most records, active means well fitted activation curve with a large enough effect; inconclusive means small, poorly fitted or top-dose-only effect; inactive means no such curve, though single readings can be large or run the other way. Potencies beside an inconclusive call are fits to weak or partial responses and may not hold up.

Assay: qHTS Assay for Small Molecule Inhibitors of Mitochondrial Division or Activators of Mitochondrial Fusion; further: nearly all actives have a fitted effect of over 45% in size;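 on growth rescue (activation): temperature-sensitive fusion mutants such as fzo1-1 at 37 °C on non-fermentable ethanol glycerol medium; % of control where 0% means no effect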
Conditions: S. cerevisiae fusion-defective mutant growth rescue, CellTiterGlo 48 h; growth rescue (activation): at 46.1 µM (top of the series) unless noted
How it was run: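 Yeast fusion mutant, YPEG (non-fermentable carbon), compound, 48 h at 37C non-permissive; CellTiterGlo added, 10 min RT, luminescence read. Rescued growth = division inhibition.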
Potency means the concentration at half of the fitted maximal effect.

Compound	Potency	growth rescue (activation)
CC1CCc2c(sc(Nc3nc4c(F)cccc4s3)c2C(N)=O)C1 (stereo not drawn)	inconclusive: 11.2 µM [activator, partial curve]	
CCCCOc1ccc(-c2cn3ccccc3n2)cc1[N+](=O)[O-]	inconclusive: 31.6 µM [activator, single point]	
Oc1[nH]c2ccc(Br)cc2c1N=NC(=S)N1CCOCC1		inactive: -3.79%
CCOC(=O)c1c(N)ssc1=S	inconclusive: 35.5 µM [activator, single point]	
Cc1nnc(-c2ccccc2)o1		inactive: -1.81%
Cc1ccc(NC(=O)CSc2ccccc2)cc1S(=O)(=O)N1CCCCC1		inactive: 25%
O=C1c2ccccc2NC(c2ccc(Cl)cc2Cl)N1Cc1ccccc1 (stereo not drawn)		inactive: 6.52%
CC1=NN(c2ccccc2)C(=O)/C1=C\C=C1/N(C)c2ccccc2C1(C)C	inconclusive: 11.2 µM [activator, partial curve]	
Cc1cc(C)n(-c2nc(Nc3ccccc3C(F)(F)F)nc(-n3nc(C)cc3C)n2)n1	inconclusive: 11.2 µM [activator, partial curve]	
O=C(NCCc1ccccc1)C1CCCN1S(=O)(=O)c1ccc(Cl)cc1 (stereo not drawn)	inconclusive: 11.2 µM [activator, partial curve]	
COc1ccc2c(c1OC)C(=O)N1N=C(c3ccc(Cl)cc3)CC21 (stereo not drawn)	inconclusive: 22.4 µM [activator, single point]	
Cc1ccccc1-c1nc(CS(=O)CC(=O)NC(C)CCc2ccccc2)c(C)o1 (stereo not drawn)	inconclusive: 35.5 µM [activator, single point]	
Cc1cccc(Oc2nc(-c3ccccc3)cc(C)c2S(C)(=O)=O)c1C		inactive: -0.46%
Cc1onc(-c2ccccc2)c1C(=O)OCC(=O)NC(C)c1ccc(Cl)cc1 (stereo not drawn)	inconclusive: 17.8 µM [activator, single point]	
CCCCC1(O)CC(C(F)(F)F)=NN1C(=O)COc1ccccc1 (stereo not drawn)	inconclusive: 17.8 µM [activator, single point]	
Cc1ccc(OCC(=O)Nc2ccccc2-c2ccccc2)cc1	inconclusive: 3.55 µM [activator, partial curve]	
CCCSC1=C(C#N)C(c2ccc(OC)cc2)C2=C(CC(C)(C)CC2=O)N1 (stereo not drawn)		inactive: 5.01%
COc1ccc(C(=O)NC(=S)Nc2ccccc2N2CCOCC2)cc1Br	inconclusive: 20 µM [activator, single point]	
Cc1cc(C)nc(N2CCC(C(=O)O)CC2)n1		inactive: 8.3%
Cc1csc(NC(=O)c2ccc(Br)s2)n1		inactive: -12.2%
O=C(CCS(=O)(=O)c1ccc(Br)cc1)Nc1cc(F)ccc1F		inactive: 5.26%
COc1ccc2nc3c(c(-c4ccccc4)c2c1)CCC3	inconclusive: 17.8 µM [activator, single point]	
Cc1ccc(S(=O)(=O)Nc2cccc3c2CCCC3)cc1	inconclusive: 28.2 µM [activator, single point]	
C=CCn1c(SCC(=O)c2ccc(OC)cc2)nnc1-c1ccc2c(c1)OCO2	inconclusive: 35.5 µM [activator, single point]	
COC(=O)c1sccc1NS(=O)(=O)c1ccc(F)cc1F	inconclusive: 35.5 µM [activator, single point]	

Compound	Potency	growth rescue (activation)
CCOc1ccc(NC(=O)c2ccc(NC(=O)COC(=O)Cc3ccc(OC)cc3)cc2)cc1		inactive: 0.398%
CC(=O)Oc1ccc(C23CC4CC(CC(C4)C2)C3)cc1C(=O)O	inconclusive: 10 µM [activator, partial curve]	
CCOC(=O)/C(=N\Nc1ccc(Cl)cc1)Sc1nnc(-c2ccc(OC)cc2)n1C	inconclusive: 12.6 µM [activator, single point]	
Cc1cc(SCc2ccc(C(F)(F)F)cc2)nc(=O)[nH]1	inconclusive: 12.6 µM [activator, partial curve]	
Cc1ccc(C(=O)c2c(NC(=O)c3ccccc3C)sc(C)c2C)cc1	inconclusive: 15.8 µM [activator, single point]	
Cc1c(OCC(=O)N(C)C)ccc2c(-c3ccccc3)cc(=O)oc12	inconclusive: 14.1 µM [activator, partial curve]	
Cc1ccc(N2CCN(C(=O)c3nn(C)c4c3CS(=O)(=O)c3ccccc3-4)CC2)c(C)c1	active: 11.2 µM	
O=S(=O)(NCCC(c1ccc(F)cc1)c1ccco1)c1ccccc1 (stereo not drawn)	active: 22.4 µM	
COc1cc2c(cc1NC(=O)C(C)Sc1ccc(NC(C)=O)cc1)oc1ccccc12 (stereo not drawn)	inconclusive: 12.6 µM [activator, partial curve]	
NC(=O)c1nsc(C(=O)N(CC(=O)NCc2ccccc2)c2ccc(F)cc2)c1N	inconclusive: 5.62 µM [activator, single point]	
O=C(Cc1ccccc1)Nc1ccccc1Oc1ccccc1	inconclusive: 20 µM [activator, single point]	
CCOc1ccccc1OCCC(=O)OCC(=O)Nc1c(C)cc(C)cc1C		inactive: 0.193%
Cc1ccc(N(Cc2ccc(C(=O)Nc3c(C)n(C)n(-c4ccccc4)c3=O)cc2)S(C)(=O)=O)cc1C	inconclusive: 15.8 µM [activator, single point]	
CC(C)CC(=O)NC(c1cccs1)c1ccc2cccnc2c1O (stereo not drawn)		inactive: 4.64%
O=C1c2ccccc2C(=O)N1CCCc1c[nH]c2ccccc12	inconclusive: 28.2 µM [activator, single point]	
COC(=O)c1ccc(C2NC(=S)N(c3ccccc3)C(C)=C2C(=O)Nc2ccccc2OC)cc1 (stereo not drawn)		inactive: -1.01%
Cc1ccc(Sc2ccc(NC(=O)CCl)cc2)c(C)c1		inactive: 12.8%
CCCCC(CC)C(=O)Oc1ccc(O)c(C(C)(C)C)c1 (stereo not drawn)	inconclusive: 6.31 µM [activator, partial curve]	
CCN(Cc1nc2cc(Cl)ccc2c(=O)[nH]1)C(=O)c1cc(C2CC2)nn1-c1ccccc1	inconclusive: 22.4 µM [activator, single point]	
c1ccc(CCNc2ncnc3c2cnn3-c2ccccc2)cc1	inconclusive: 22.4 µM [activator, single point]	
COC(=O)c1ccc2nc(NC(=O)COC(=O)CSc3nc(C)cc(C)n3)sc2c1		inactive: -1.72%
COc1ccc(-c2nc3cc(NC(=S)NC(=O)Cc4ccccc4)ccc3o2)cc1	inconclusive: 35.5 µM [activator, single point]	
Cc1ccc(-c2cc(C(=O)Nc3nccs3)c3ccccc3n2)c(C)c1	inconclusive: 22.4 µM [activator, single point]	
Cc1cc(C)c(CSc2nnnn2-c2ccc(C(=O)O)cc2)c(C)c1	inconclusive: 12.6 µM [activator, partial curve]	
O=C(N/N=C/c1ccc[nH]1)c1ccccc1O		inactive: -0.927%

In another format: results already given
Cc1ccc(C(=O)c2c(NC(=O)c3ccccc3C)sc(C)c2C)cc1
  Potency: inconclusive: 15.8 µM [activator, single point]
Cc1c(OCC(=O)N(C)C)ccc2c(-c3ccccc3)cc(=O)oc12
  Potency: inconclusive: 14.1 µM [activator, partial curve]

Carrying on.

Compound	Potency	growth rescue (activation)
CC(NC(=O)/C(C#N)=C1\N=C(NC(=O)c2cccs2)c2ccccc21)c1ccccc1 (stereo not drawn)	inconclusive: 5.62 µM [activator, partial curve]	
CC(C)NC(=S)NN=C1c2ccccc2-c2ccccc21		inactive: -11.4%
CCc1c(O)cc2n(c1=O)-c1ccc(Cl)cc1C2(C)C	inconclusive: 25.1 µM [activator, single point]	
CN1CCCCc2c1[nH]c1ccccc1c2=O	inconclusive: 17.8 µM [activator, single point]	
COc1cc(C(=O)Nc2cc(C(F)(F)F)ccc2N2CCOCC2)ccc1O	inconclusive: 22.4 µM [activator, single point]	
O=C(CN1CCN(S(=O)(=O)c2ccc(Cl)cc2)CC1)Nc1ccc2c(c1)CCC2	inconclusive: 35.5 µM [activator, single point]	
COc1c(F)c(F)c(C(=O)O)c(Nc2ccccc2)c1F		inactive: -1.99%
O=C(/C=C/c1ccc(Cl)cc1Cl)NCCSCc1ccccc1	inconclusive: 14.1 µM [activator, single point]	
O=C(Nc1ncccc1O)c1ccc(Oc2ccccc2)cc1	inconclusive: 2.51 µM [activator, full curve]	
Cc1ccccc1CSCC(=O)Nc1ccccc1-c1ccccc1	inconclusive: 12.6 µM [activator, partial curve]	
CCOC(=O)COc1cc(N)c(Cl)cc1Cl		inactive: -5.67%
O=C(CCn1nc(-c2ccc(Cl)cc2)ccc1=O)N1CCN(c2ccc(F)cc2)CC1	inconclusive: 20 µM [activator, partial curve]	
CCOC(=O)c1cnn(-c2nc(-c3ccc(F)cc3)cs2)c1C(F)(F)F		inactive: -2.97%
c1ccc(N2CCN(c3ncnc4scc(-c5cccs5)c34)CC2)cc1	inconclusive: 22.4 µM [activator, single point]	
COc1ccc(N=C2SCC(=O)N2Cc2ccccc2)cc1		inactive: -0.0675%
COc1ccc(OC)c(S(=O)(=O)NCC(c2cccs2)N2CCc3ccccc3C2)c1 (stereo not drawn)	inconclusive: 22.4 µM [activator, single point]	
C=CCN1CCN(C(c2cccc(OC)c2OC)c2nnnn2CCC(C)C)CC1 (stereo not drawn)	inconclusive: 5.62 µM [activator, single point]	
Cc1ccc(S(=O)(=O)CCC#N)cc1		inactive: -1.67%
CC(=O)c1c(C)[nH]c(C(=O)OCc2ccccc2)c1C	inconclusive: 35.5 µM [activator, single point]	
Cc1c(O)ccc(C(=O)CN2CCN(c3ccccc3F)CC2)c1O	inconclusive: 7.08 µM [activator, full curve]	
Cc1ccc2nc(Nc3ccc(C)c(C)c3)c3nncn3c2c1	inconclusive: 14.1 µM [activator, single point]	
Cc1c(C(=O)NCc2ccc3c(c2)cc(C)n3C)cccc1[N+](=O)[O-]		inactive: -4.08%
CCOc1ccc(Oc2c(C)oc3cc(O)ccc3c2=O)cc1	inconclusive: 31.6 µM [activator, single point]	
